Paper PMC3338420
Results are given in words; binding and its absence hold for the method and conditions named. Binding can be weak; no strength is given.

Amino acid sequences for entries named in this document (tags omitted). A change or cut given only in a name is not applied to a line headed by its entry. Chains listed by the source or under a name are the forms on record and can include a tag or linker. Residues count along the entry.
UniProt Q6PAL8: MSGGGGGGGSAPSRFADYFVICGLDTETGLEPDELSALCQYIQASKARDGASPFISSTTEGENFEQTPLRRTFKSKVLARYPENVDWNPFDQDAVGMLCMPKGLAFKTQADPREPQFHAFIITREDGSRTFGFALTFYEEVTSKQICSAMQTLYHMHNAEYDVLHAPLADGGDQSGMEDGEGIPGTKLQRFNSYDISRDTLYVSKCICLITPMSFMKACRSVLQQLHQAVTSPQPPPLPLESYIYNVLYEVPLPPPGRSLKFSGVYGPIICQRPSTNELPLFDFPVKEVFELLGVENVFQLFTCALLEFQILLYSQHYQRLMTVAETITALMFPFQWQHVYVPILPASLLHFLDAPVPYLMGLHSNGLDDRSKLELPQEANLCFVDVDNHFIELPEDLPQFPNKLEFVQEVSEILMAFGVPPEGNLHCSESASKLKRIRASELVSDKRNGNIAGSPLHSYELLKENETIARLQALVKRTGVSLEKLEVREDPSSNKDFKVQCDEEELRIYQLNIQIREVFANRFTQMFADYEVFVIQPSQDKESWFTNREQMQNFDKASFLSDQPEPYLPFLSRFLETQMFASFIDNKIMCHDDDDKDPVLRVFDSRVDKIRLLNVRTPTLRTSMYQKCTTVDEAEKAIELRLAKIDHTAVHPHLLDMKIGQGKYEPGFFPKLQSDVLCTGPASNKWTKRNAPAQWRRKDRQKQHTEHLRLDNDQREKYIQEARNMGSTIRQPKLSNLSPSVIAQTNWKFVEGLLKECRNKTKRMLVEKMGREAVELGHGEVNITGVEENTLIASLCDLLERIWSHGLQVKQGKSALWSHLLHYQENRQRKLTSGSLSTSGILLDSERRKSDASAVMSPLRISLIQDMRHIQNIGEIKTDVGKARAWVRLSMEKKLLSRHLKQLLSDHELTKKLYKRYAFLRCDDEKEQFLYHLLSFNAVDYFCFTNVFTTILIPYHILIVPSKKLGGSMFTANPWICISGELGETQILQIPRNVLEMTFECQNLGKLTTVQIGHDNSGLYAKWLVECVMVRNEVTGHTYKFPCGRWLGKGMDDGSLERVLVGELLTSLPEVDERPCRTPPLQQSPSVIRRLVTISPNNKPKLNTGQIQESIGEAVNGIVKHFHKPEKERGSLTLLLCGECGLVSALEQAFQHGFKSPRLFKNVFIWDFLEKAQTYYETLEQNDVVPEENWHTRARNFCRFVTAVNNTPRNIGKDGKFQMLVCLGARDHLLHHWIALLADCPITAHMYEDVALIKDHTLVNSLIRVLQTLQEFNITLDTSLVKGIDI
Rab6a (residues 8–195, Q72L) (P20340, form named): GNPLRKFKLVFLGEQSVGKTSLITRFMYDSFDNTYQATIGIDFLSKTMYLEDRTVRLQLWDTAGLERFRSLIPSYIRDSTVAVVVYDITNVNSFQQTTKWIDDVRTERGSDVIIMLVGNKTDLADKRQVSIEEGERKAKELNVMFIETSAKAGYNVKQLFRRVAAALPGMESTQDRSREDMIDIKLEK

Columns and labels:
[1] = target: RPRdel (RUN1-PLAT-RUN2 of DENND5A, loop 813–835 deleted) (mouse) (UniProt Q6PAL8); experiment: SEC; Rab6a co-expressed with the DENND5A fragment in E. coli; complex purified and eluted together in gel filtration, SDS-PAGE of the peak
[2] = target: RPdel (RUN1-PLAT of DENND5A, loop 813–835 deleted) (mouse) (UniProt Q6PAL8); experiment: as above

## Rab6a (residues 8–195, Q72L) (from UniProt P20340 8-195) (domain or fragment)
[1]
  binding: binds
[2]
  binding: binds
